Experimental data reported in PubChem BioAssay AID2685 (National Center for Advancing Translational Sciences (NCATS), 2010).
The whole screen tested about 320,000 compounds, of which about 2,100 (0.66%) were called active. Inconclusive results, whose numbers are uncertain, are shown with a selection of clear calls. The call rests on the fitted dose curve; in most records, active means well fitted inhibition curve with a large enough effect in the signal ratio, with a control signal flat (not every such curve was filed as active); inconclusive means small, poorly fitted or top-dose-only effect, or effect the other way, or a change in a side signal; inactive means flat fitted curve, though single readings scatter; the % refers to the signal ratio. A potency beside an inconclusive call is a rough fit, not a confirmed value.

Experiment: qHTS Assay for Lipid Storage Modulators in Drosophila S3 Cells
Conditions: BODIPY lipid droplet fluorescence, 18-24 h, cells fed with added oleic acid; lipid storage change, negative = inhibition: at 46.1 µM (top of the series) unless noted
Summary of the method: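 Drosophila S3 cells got compounds at several concentrations plus oleic acid (400 uM solution). Laser-scanning cytometry with 488 nm excitation read lipid droplets at 500-530 nm and cells at 575-640 nm. Percent activity was relative to 20 uM Triacsin C.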
On the % scale 0 is the no-effect control and ±100 the full control effect; potency means the concentration at half of the fitted maximal effect.

| Compound | lipid storage change, negative = inhibition | Potency |
| --- | --- | --- |
| O=C(CSc1nnc(COc2ccccc2)o1)N1CCN(c2ccccc2)CC1 | inactive: 2.5% |  |
| COc1cc2c(cc1OC)C1O[C@](CCCCN3C(=O)c4ccccc4C3=O)(C2)OC2=C1C(=O)CCC2 | inconclusive: -16.7% [at 9.22 µM] |  |
| CCN1CCN(C(=O)c2nn(-c3ccccc3)c(=O)c3ccccc23)CC1 |  | inconclusive: 29.1 µM [falling, single point] |
| COCCNC(=O)/C(C#N)=C/c1c(F)cccc1Cl | inconclusive: -83% |  |
| CC1(C)COC(c2ccc(F)c([N+](=O)[O-])c2)=N1 | inconclusive: -49.1% |  |
| CC(C)OC(=O)/C(C#N)=C/c1cn(Cc2ccccc2)c2ccccc12 |  | inconclusive: 29.1 µM [falling, single point] |
| O=C(CSc1nnc(Cc2ccccc2)o1)c1cc(F)ccc1F |  | inconclusive: 32.6 µM [activator, single point] |
| CN(C)S(=O)(=O)c1ccc2c(c1)Cc1cc(S(=O)(=O)N(C)C)ccc1-2 | inactive: -3.2% |  |
| CC1CCCCN1C(=O)Cn1c(=O)oc2cc(S(=O)(=O)N3CCCC3)ccc21 (configuration not stated) |  | inconclusive: 0.82 µM [activator, full curve] |
| CCCCOc1ccc(-c2nc(SCC(N)=O)n[nH]2)cc1 | inconclusive: -28.4% |  |
| COc1ccc(NC(=O)Nc2nnc(N3CCCCC3C)s2)cc1OC (configuration not stated) | inconclusive: 24.9% |  |
| COc1ccc(C(=O)Nc2cccc3ccccc23)cc1 | inconclusive: 120% |  |
| COc1cc(Nc2cc(C)nc3nc(C)nn23)cc(OC)c1OC |  | inconclusive: 14.6 µM [falling, single point] |
| COc1ccc(C(=O)Nc2ccc(C(=O)OCC(=O)c3cccc4ccccc34)cc2)cc1 |  | inconclusive: 0.82 µM [falling, full curve, poor fit] |
| CCc1ccc(OCC(O)CN2CCN(c3ccccc3)CC2)cc1 (configuration not stated) |  | inconclusive: 29.1 µM [falling, single point] |
| CCCCCn1c(CN2CCN(Cc3ccccc3)CC2)nc2c1c(=O)n(C)c(=O)n2C | inconclusive: -17.9% |  |
| CC(C)c1nc(C#N)c(NCCCn2ccnc2)o1 |  | inconclusive: 5.8 µM [activator, partial curve, poor fit] |
| CC1(c2ccccc2Br)NC(=O)N(CC(=O)NC2CCCCC2)C1=O (configuration not stated) |  | inconclusive: 18.4 µM [activator, single point] |
| Cc1cccc(NC(=S)Nc2ccc(Br)cc2)c1 | inconclusive: -45.4% |  |
| COc1cc(C2C(C#N)=C(N)N(Nc3ccccc3)C3=C2C(=O)CC(C)(C)C3)ccc1OCc1cccc(F)c1 (configuration not stated) | inconclusive: -38% |  |
| COc1ccc2oc(=O)c(-c3csc(Nc4cccc(O)c4)n3)cc2c1 |  | inconclusive: 25.9 µM [activator, single point] |
| Cc1ccc(C2c3c(oc4cc(C)c(C)cc4c3=O)C(=O)N2CCCN2CCOCC2)cc1 (configuration not stated) |  | inconclusive: 11.6 µM [rising, partial curve] |
| C=CCN1C(=O)c2ccc(C(=O)N(C)CC(=O)Nc3ccccc3Br)cc2C1=O |  | inconclusive: 20.6 µM [falling, single point] |
| CN(Cc1ccccc1F)C(=O)CN1C(=O)NC2(CCc3ccccc32)C1=O (configuration not stated) | inconclusive: -34.3% |  |

Filtered by structure: the entries above with an aryl thioether with sulfur outside any ring (three)

| Compound | lipid storage change, negative = inhibition | Potency |
| --- | --- | --- |
| O=C(CSc1nnc(COc2ccccc2)o1)N1CCN(c2ccccc2)CC1 | inactive: 2.5% |  |
| O=C(CSc1nnc(Cc2ccccc2)o1)c1cc(F)ccc1F |  | inconclusive: 32.6 µM [activator, single point] |
| CCCCOc1ccc(-c2nc(SCC(N)=O)n[nH]2)cc1 | inconclusive: -28.4% |  |

Continuation:

| Compound | lipid storage change, negative = inhibition | Potency |
| --- | --- | --- |
| Cc1nn(C)cc1/C=N/n1nnnc1N | inconclusive: 15.7% |  |
| CC1(C)Cc2cccc(OCC(=O)OCC(=O)c3ccccc3)c2O1 | inconclusive: 18.5% |  |
| O=C(CCc1nc2ccccc2[nH]1)N1CCc2ccccc2C1 | inconclusive: -15.7% |  |
| CC/C=C/C(=O)N1CC2(CC(c3cccc(NC(=O)c4ccccc4)c3)=NO2)C[C@@H]1C(N)=O (some centres not stated) | inconclusive: -1.54% |  |
| CNc1nc(-c2ccc3c(c2)CCN3C(=O)CC(C)(C)C)c(C)s1 | inconclusive: -28.6% |  |
| COCCN1CN(S(=O)(=O)c2ccccc2)c2nc3ccccc3nc21 |  | inconclusive: 0.651 µM [rising, partial curve, poor fit] |
| NC(=O)C1CCCN(S(=O)(=O)c2ccc(Br)cc2)C1 (configuration not stated) | inconclusive: -108% |  |
| CC(=O)NCc1cc(-c2ccc(Cl)cc2)no1 | inactive: 0.337% [at 9.22 µM] |  |
| CC(C)(C)c1ccc(C(=O)N2CCN(C(=O)c3ccco3)CC2)cc1 | inconclusive: -20.5% |  |
| Cc1ccccc1NC(=O)Cc1nc(COC(=O)c2ccc(C(F)(F)F)cc2)cs1 |  | inconclusive: 3.66 µM [activator, partial curve, poor fit] |
| C/C(=N\Nc1nc(C(C)(C)C)cs1)c1ccccc1 |  | inconclusive: 0.58 µM [activator, single point] |
| CCOc1cc(/C=N/Nc2nc(N3CCCC3)nc(N3CCCC3)n2)ccc1O | inconclusive: -12.5% |  |
| Cc1ccc(OCC(=O)Nc2ccccc2C(=O)NC2CC2)cc1 |  | inconclusive: 13 µM [activator, partial curve, poor fit] |
| Cc1ccc(-c2cccc(CN3CCN(C(C)C)C(CCO)C3)c2)o1 (configuration not stated) | inconclusive: 22.5% |  |
| O=C(CCCCCn1c(=S)[nH]c2cc3c(cc2c1=O)OCO3)N1CCN(c2ccc(F)cc2)CC1 |  | inconclusive: 6.51 µM [activator, single point] |
| CCN(CC)S(=O)(=O)c1cccc(C(=O)NCC(c2ccccc2)N(C)C)c1 (configuration not stated) | inconclusive: 40.5% |  |
| COc1ccc(NC(=O)CN(C)C(=O)c2cn(-c3ccccc3)nc2-c2cccnc2)cc1 |  | inconclusive: 0.461 µM [activator, full curve] |
| Cc1nnc(SCC(=O)c2ccc(Cl)cc2)n(N)c1=O | inconclusive: 12.2% [at 9.22 µM] |  |
| O=C(Nc1cc(Cl)ccc1O)C1CC(c2c(F)cccc2Cl)=NO1 (configuration not stated) | inconclusive: -27.4% |  |
| COC(=O)c1cc(OC)c(OC)cc1NC(=O)c1cccc(OC)c1OC |  | inconclusive: 0.103 µM [falling, full curve, poor fit] |
| O=C(CN1C(=O)S/C(=C\c2ccccn2)C1=O)Nc1ccc(F)cc1 |  | inconclusive: 6.51 µM [activator, single point] |
| OCCC1CN(C2CCC2)CCN1Cc1ccc(F)c(F)c1 (configuration not stated) |  | inconclusive: 16.4 µM [activator, single point] |
| CCC(=O)Nc1ccc(C(=O)CN2C(=O)NC3(CCCCCC3)C2=O)cc1 | inconclusive: 14.8% |  |
| CCCCN1CNC(=S)N(c2cc(C)ccc2C)C1 |  | inconclusive: 29.1 µM [cytotoxic, single point] |

| Compound | lipid storage change, negative = inhibition | Potency |
| --- | --- | --- |
| CCOC(=O)C(C(=O)OCC)N(C#N)c1nc(N(C)C)nc(N(C)C)n1 | inactive: 1.46% |  |
| O=C(c1ccc2c(c1)OCCO2)N1CCN(Cc2ccccc2)CC1 | inconclusive: -16.9% |  |
| CCOc1ccc(S(=O)(=O)N2Cc3ccccc3CC2C(=O)NCCCn2ccnc2)cc1 (configuration not stated) | inconclusive: 17.9% |  |
| Cc1cccc(C)c1OCc1cc(C(=O)N2CCC(c3ccccc3)CC2)no1 | inconclusive: 19.6% |  |
| COC(=O)N/N=C/c1cn(Cc2c(Cl)cccc2Cl)c2ccccc12 |  | inconclusive: 5.8 µM [activator, partial curve, poor fit] |
| CC(=O)c1c(C)[nH]c(C(=O)OCC(=O)c2c(N)n(CC(C)C)c(=O)n(C)c2=O)c1C |  | inconclusive: 0.461 µM [falling, full curve, poor fit] |
| Oc1ccc(-c2nnc(SCc3ccccc3)o2)cc1 | inconclusive: 39.4% |  |
| O=C(Nc1ccc(N2CCCCC2)cc1)c1cc(S(=O)(=O)N2CCOCC2)ccc1F |  | inconclusive: 0.731 µM [falling, full curve, poor fit] |
| O=C(c1cc([N+](=O)[O-])ccc1N1CCOCC1)N1CCOCC1 |  | inconclusive: 0.82 µM [falling, single point] |
| Cc1sc2nc(SCC(=O)NCc3ccco3)n(Cc3ccccc3)c(=O)c2c1C | inconclusive: 224% |  |
| O=C(C[n+]1ccccc1)N/N=C/c1cc(Br)cc(Br)c1O |  | inconclusive: 2.06 µM [falling, single point] |
| CCCCCCCNC(=O)C1(CC2CC(c3cccc(Br)c3)=NO2)CCN(C(=O)c2cc(OCC)c(OCC)c(OCC)c2)CC1 (configuration not stated) | inactive: -9.14% |  |
| O=C(Nc1ccc2c(c1)OCCO2)C1CC(c2ccccc2Cl)=NO1 (configuration not stated) |  | inconclusive: 0.82 µM [falling, full curve] |
| CCC(C(=O)N1CCOCC1)n1nc(C)n2c(cc3cc(C)ccc32)c1=O (configuration not stated) |  | inconclusive: 29.1 µM [falling, single point] |
| CC(=O)c1ccc(N2Cc3ccccc3/C2=N\C(=O)Nc2ccc(Cl)cc2)cc1 | inconclusive: 70.4% |  |
| CCCC(C)NC(=O)Cc1ccc(S(=O)(=O)N2CCOCC2)s1 (configuration not stated) | inconclusive: 20.4% |  |
| COc1ccc(NC(C)=O)c2nc(C)c(C)nc12 | inconclusive: 15.1% |  |
| CCOc1ccc(-c2cc(CCCC(=O)NCCCOC)no2)cc1 | inconclusive: -79.1% |  |
| CN1C(=O)C(C)(C)N(C(=O)c2cccc([N+](=O)[O-])c2)c2ccccc21 | inconclusive: -1.72% |  |
| Cc1sc2nc(CSC(C)C(=O)Nc3ccc(Cl)cn3)[nH]c(=O)c2c1C (configuration not stated) | inconclusive: -11.6% |  |
| Cc1cccc(NC(=O)CCS(=O)(=O)c2cc3c(cc2Cl)NC(=O)CO3)c1 |  | inconclusive: 18.4 µM [activator, single point] |
| NC(=O)C1(N2CCCCC2)CCN(C(=O)CSc2nc3ccccc3s2)CC1 | inactive: 51% |  |
| O=C(CN(C(=O)C1CSC(=O)C1)c1cccc(F)c1)NC1CCCC1 (configuration not stated) | inconclusive: -56% |  |
| O=C(CN1C(=O)NC(Cc2c[nH]c3ccccc23)C1=O)Nc1ccccc1Br (configuration not stated) | inconclusive: -20.5% |  |
